Measured values as given in article PMC10371266.
Results are given in words; binding and its absence hold for the method and conditions named. In cells and extracts the contact can be indirect. Some results given as binding are weak or reduced against the parent protein; the word gives no strength.

By UniProt entry, the sequences of proteins in these tests, tags left out. Where a name states a change or a piece, a line headed by the entry shows the natural chain unless it says otherwise. Chains listed by the source or under a name are the forms on record and can include a tag or linker. Residues count along the entry.
human type IV collagen α3 chain fused to SmBiT, α3(IV)-SmBiT (Q01955, residues 29-1670): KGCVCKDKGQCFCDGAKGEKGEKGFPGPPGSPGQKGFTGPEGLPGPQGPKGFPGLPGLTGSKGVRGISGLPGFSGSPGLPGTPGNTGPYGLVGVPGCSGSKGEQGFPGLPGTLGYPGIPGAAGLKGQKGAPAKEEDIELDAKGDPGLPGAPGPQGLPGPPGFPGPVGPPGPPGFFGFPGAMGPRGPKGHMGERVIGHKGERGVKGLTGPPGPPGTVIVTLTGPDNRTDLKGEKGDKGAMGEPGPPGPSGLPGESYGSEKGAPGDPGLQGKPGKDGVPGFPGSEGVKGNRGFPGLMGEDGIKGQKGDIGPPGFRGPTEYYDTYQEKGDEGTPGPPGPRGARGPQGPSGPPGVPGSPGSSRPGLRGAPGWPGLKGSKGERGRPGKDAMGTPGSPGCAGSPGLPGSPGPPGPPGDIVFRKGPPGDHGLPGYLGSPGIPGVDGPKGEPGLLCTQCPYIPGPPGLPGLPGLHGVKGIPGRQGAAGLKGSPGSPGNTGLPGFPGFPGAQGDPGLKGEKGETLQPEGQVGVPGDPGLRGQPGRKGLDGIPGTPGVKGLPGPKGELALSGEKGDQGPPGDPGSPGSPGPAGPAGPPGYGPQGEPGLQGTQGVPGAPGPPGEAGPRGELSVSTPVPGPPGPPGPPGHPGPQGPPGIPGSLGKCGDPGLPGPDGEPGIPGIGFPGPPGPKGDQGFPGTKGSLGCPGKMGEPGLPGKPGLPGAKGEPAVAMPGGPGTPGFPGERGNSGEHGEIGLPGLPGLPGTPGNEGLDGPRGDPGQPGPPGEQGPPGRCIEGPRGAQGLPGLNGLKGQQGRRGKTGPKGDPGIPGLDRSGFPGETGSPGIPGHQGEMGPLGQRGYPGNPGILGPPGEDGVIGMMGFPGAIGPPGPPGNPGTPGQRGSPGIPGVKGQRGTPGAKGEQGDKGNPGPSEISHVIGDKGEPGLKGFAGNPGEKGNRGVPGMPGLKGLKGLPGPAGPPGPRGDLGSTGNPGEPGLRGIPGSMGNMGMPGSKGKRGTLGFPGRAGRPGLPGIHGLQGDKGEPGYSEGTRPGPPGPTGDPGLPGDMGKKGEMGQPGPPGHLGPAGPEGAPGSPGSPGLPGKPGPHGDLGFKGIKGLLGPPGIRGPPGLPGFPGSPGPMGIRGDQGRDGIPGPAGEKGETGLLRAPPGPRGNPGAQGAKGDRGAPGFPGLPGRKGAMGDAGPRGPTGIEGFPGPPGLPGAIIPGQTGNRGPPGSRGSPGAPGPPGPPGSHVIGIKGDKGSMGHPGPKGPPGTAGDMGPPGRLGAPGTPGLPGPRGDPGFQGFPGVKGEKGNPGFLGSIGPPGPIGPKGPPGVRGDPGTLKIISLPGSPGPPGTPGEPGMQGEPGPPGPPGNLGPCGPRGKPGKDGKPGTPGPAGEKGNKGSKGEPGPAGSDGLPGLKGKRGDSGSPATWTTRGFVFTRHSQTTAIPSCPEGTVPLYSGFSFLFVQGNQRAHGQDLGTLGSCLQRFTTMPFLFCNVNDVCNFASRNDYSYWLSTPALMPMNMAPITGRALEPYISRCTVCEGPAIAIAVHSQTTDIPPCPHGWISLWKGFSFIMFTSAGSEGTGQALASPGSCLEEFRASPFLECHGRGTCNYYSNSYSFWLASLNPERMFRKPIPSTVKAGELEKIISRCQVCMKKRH
human type IV collagen α3 chain G1219C fused to SmBiT (Q01955, form named): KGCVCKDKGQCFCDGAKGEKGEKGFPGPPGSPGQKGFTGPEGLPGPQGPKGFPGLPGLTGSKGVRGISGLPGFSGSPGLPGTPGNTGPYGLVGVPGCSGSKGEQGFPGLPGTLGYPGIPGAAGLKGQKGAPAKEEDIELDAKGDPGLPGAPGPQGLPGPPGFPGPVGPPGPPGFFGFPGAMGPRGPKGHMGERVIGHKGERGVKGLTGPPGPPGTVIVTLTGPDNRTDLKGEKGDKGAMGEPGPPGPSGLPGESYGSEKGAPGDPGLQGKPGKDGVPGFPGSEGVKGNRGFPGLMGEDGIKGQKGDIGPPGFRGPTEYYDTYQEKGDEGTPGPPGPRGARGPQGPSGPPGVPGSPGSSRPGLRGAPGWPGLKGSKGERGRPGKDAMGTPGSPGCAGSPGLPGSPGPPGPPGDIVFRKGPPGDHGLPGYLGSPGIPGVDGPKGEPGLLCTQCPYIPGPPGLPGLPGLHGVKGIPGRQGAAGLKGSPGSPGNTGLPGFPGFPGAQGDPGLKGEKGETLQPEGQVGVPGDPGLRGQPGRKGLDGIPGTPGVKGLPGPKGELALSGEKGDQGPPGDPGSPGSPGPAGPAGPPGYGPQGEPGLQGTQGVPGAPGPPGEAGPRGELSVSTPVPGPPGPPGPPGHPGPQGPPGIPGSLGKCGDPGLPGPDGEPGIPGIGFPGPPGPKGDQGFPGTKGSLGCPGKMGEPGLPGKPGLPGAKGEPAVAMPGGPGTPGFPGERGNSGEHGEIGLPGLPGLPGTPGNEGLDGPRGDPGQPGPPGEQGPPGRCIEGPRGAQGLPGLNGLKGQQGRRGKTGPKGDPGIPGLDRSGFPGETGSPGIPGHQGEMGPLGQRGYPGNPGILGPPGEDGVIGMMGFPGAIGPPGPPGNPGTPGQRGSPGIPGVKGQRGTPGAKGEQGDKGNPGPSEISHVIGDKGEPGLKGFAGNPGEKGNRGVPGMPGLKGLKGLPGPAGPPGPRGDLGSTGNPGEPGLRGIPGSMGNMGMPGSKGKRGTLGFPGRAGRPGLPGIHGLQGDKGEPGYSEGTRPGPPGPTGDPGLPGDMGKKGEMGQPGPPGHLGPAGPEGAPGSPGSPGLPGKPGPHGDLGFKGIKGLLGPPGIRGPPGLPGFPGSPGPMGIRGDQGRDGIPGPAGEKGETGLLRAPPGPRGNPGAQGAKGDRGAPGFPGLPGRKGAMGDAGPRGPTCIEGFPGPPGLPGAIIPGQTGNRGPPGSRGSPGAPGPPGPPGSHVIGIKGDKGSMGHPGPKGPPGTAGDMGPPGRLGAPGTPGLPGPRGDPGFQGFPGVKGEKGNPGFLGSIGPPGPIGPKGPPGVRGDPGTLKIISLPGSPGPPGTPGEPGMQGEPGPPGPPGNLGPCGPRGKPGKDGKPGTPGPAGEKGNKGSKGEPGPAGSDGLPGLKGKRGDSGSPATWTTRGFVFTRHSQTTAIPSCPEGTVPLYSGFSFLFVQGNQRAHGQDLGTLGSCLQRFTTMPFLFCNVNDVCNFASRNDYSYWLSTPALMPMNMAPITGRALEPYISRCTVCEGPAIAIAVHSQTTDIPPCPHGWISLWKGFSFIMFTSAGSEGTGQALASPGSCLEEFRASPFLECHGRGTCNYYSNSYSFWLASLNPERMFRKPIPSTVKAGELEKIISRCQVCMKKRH
human type IV collagen α5 chain fused to LgBiT, α5(IV)-LgBiT wild type (P29400, residues 27-1685): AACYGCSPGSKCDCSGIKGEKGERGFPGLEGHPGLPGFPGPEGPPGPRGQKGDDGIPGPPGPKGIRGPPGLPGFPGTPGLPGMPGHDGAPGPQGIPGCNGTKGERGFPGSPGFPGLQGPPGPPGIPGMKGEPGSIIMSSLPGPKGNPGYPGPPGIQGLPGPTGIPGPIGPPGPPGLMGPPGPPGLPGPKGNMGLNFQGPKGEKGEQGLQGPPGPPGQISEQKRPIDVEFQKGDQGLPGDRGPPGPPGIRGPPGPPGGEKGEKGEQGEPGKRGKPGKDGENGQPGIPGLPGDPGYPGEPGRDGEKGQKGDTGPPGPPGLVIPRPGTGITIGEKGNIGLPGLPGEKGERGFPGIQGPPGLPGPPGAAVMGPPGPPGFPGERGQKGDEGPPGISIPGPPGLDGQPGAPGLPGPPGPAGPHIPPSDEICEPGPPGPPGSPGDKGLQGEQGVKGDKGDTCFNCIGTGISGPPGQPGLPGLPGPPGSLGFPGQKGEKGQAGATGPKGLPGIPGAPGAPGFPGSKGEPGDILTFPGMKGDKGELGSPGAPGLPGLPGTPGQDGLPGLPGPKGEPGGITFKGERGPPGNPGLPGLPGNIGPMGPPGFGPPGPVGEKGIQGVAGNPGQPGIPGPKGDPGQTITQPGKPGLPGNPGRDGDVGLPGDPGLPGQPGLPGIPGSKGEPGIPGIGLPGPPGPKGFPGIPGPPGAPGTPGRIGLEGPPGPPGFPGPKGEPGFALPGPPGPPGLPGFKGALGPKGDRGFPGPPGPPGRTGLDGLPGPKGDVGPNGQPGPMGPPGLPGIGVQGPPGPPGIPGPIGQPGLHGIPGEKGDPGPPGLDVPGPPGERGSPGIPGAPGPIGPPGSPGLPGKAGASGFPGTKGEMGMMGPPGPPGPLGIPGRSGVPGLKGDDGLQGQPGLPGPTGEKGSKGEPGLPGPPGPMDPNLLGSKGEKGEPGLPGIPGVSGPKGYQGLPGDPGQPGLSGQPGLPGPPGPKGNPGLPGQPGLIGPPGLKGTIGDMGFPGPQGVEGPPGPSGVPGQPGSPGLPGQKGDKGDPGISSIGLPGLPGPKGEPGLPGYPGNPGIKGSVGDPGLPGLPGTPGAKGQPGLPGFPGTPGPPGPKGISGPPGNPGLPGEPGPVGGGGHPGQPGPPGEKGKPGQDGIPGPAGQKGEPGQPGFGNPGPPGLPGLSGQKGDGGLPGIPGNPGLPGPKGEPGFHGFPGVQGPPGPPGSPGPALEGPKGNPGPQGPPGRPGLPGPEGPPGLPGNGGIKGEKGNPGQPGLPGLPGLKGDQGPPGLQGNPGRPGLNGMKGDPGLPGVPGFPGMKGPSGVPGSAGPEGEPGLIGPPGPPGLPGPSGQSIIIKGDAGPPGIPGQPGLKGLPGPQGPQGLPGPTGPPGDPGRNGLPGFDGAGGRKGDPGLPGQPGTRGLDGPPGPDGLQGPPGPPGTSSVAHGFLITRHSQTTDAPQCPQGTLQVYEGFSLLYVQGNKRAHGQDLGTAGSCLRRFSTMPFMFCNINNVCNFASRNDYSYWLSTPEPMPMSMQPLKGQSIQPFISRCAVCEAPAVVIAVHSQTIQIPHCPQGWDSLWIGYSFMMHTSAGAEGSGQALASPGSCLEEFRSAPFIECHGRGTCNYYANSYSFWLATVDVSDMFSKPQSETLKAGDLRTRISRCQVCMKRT

How the values were obtained:
[1] = molecular target: human type IV collagen α3 chain fused to SmBiT, α3(IV)-SmBiT (human) (UniProt Q01955); assay: split reporter; HEK293T cells transiently cotransfected with α3(IV)-SmBiT, α4(IV)-3×FLAG and α5(IV)-LgBiT (WT or mutants); luminescence of intracellular and secreted trimer; cells treated with DMSO, 1 μM CsA or 2 μM ALV
[2] = molecular target: human type IV collagen α3 chain fused to SmBiT, α3(IV)-SmBiT (human) (UniProt Q01955); assay: split reporter; HEK293T cells stably expressing α3(IV)-SmBiT, α4(IV)-3×FLAG and α5(IV)-LgBiT G1244D; luminescence of intracellular and secreted trimer (cells and culture medium), Nano-Glo Live Cell Assay; cells treated 24 h with DMSO, CsA, BFA, osmolytes, ALV and other compounds
[3] = molecular target: human type IV collagen α3 chain G1219C fused to SmBiT (human) (UniProt Q01955); assay: split reporter; HEK293T cells transiently cotransfected with α3(IV)-SmBiT, α4(IV)-3×FLAG and α5(IV)-LgBiT (WT or mutants); luminescence of intracellular and secreted trimer; cells treated with DMSO, 1 μM CsA or 2 μM ALV

Substance	binding [1]	binding [2]	binding [3]
human type IV collagen α5 chain G869R fused to LgBiT (from UniProt P29400 27-1685)	binds		
human type IV collagen α5 chain G1220D fused to LgBiT (from UniProt P29400 27-1685)	binds		
human type IV collagen α5 chain G1241C fused to LgBiT (from UniProt P29400 27-1685)	binds		
human type IV collagen α5 chain G1241V fused to LgBiT (from UniProt P29400 27-1685)	binds		
human type IV collagen α5 chain G1244D fused to LgBiT, α5(IV)-LgBiT G1244D (from UniProt P29400 27-1685)	binds	binds	
human type IV collagen α5 chain fused to LgBiT, α5(IV)-LgBiT wild type (from UniProt P29400 27-1685)	binds		binds
